Reference: paper PMC4937415
These are yes or no findings as the source states them, for the method shown. For part of these data: In cells and extracts the contact can be indirect. Some binding calls cover weakened binding; strength is not graded here.

Amino acid sequences for entries named in this document (tags omitted).
UniProt P27695: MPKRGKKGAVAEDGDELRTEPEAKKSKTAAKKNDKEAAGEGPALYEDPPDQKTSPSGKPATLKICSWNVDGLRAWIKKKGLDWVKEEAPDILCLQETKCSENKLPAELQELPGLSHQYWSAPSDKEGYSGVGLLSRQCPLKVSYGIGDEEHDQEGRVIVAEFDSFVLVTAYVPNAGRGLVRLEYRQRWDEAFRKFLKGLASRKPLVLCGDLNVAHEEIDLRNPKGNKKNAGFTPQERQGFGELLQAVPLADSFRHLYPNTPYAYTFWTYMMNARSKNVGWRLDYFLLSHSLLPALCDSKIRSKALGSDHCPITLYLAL

What was measured:
[1] = biological target: T1, Peroxiredoxin 1 (PRDX1) (human (endogenous in HeLaS and HeLa)) (UniProt Q06830); test: SEC; nuclear extract of HeLa cells prepared with the thiol blocking agent MMTS (80 mM); Superose 6 FPLC, buffer A, 0.25 ml/min; extract and fractions by Western blot with anti-PRDX1 and anti-APE1; 60 kDa polypeptide in fractions 23 and 24
T1 sequence: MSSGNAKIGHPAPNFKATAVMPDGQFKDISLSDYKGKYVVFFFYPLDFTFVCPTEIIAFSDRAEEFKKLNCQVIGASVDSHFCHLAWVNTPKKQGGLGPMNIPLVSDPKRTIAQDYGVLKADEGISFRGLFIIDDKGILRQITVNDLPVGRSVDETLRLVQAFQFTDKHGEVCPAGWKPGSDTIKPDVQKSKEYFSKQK

[2] = biological target: T1, Peroxiredoxin 1 (PRDX1) (human (endogenous in HeLaS and HeLa)); test: condition: only cells treated with 20 μM E3330 for 4 h; SEC; as a6, but HeLa cells treated with 20 μM E3330 for 4 h; fractions 23 to 28 probed with anti-PRDX1
[3] = biological target: T1, Peroxiredoxin 1 (PRDX1) (human (endogenous in HeLaS and HeLa)); test: co-IP; protein A magnetic beads with anti-PRDX1 antibodies, HeLa nuclear extract, overnight at 4 °C; blot with anti-PRDX1 and anti-APE1

binding [1]: binds | binding [2]: no binding | binding [3]: binds
Substance: APE1 (native, 37 kDa) (from UniProt P27695 1-318)
